Test results reported in PubChem BioAssay (NCATS).
Inconclusive means that the source gave no clear call. Such entries were picked first, then a sample of the others. For some of these results: Potencies beside an inconclusive call are fits to weak or partial responses and may not hold up. Active and inactive are the calls of the source. The call rests on the fitted dose curve; in most records, active means well fitted cell-killing curve with a large enough effect; inconclusive means small, poorly fitted or top-dose-only effect, or effect the other way; inactive means no such curve, though single readings can be large or run the other way. Where a SMILES comes first, the peptide text is derived from it. [ ]: non-standard residue; d: D form. The star is where a group is joined. Sta = CC(C)C[C@H](N)[C@@H](O)CC(=O)O; Isovaleryl = CC(C)CC(=O)*

Experiments:
[1] = Quantitative High-Throughput drug screen in 47 multiple myeloma cell lines against the NCATS MIPE library collection: L363_DSMZ cell viability assay (AID 1918984); details: L363 myeloma viability, CellTiter-Glo ATP luminescence, 48 h; viability (% of control): at 45.8 µM (top of the series); further: nearly all actives have a fitted effect of over 40% in size
Outline: (§1)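 Cells were exposed to library compounds for 48 hours, after which ATP was measured by CellTiter-Glo. Signal was taken as median relative luminescence units.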

[2] = Quantitative High-Throughput drug screen in 47 multiple myeloma cell lines against the NCATS MIPE library collection: OCIMY7_PLB cell viability assay (AID 1918987); details: OCI-MY7 myeloma viability, CellTiter-Glo ATP, 48 h; viability (% of DMSO): at 45.8 µM (top of the series); further: nearly all actives have a fitted effect of over 65% in size
Outline: as §1

[3] = Quantitative High-Throughput drug screen in 47 multiple myeloma cell lines against the NCATS MIPE library collection: OCIMY5_PLB cell viability assay (AID 1918988); details: OCI-MY5 myeloma viability, ATP luminescence, 48 h; viability, % of control: at 45.8 µM (top of the series); further: nearly all actives have a fitted effect of over 65% in size;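 on viability, % of control: 100% = DMSO-treated wells and 0% = wells with media alone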
Outline: as §1

[4] = Quantitative High-Throughput drug screen in 47 multiple myeloma cell lines against the NCATS MIPE library collection: OPM1_PLB cell viability assay (AID 1918989); further: nearly all actives have a fitted effect of over 40% in size;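 on viability (% of control): 100% = DMSO-only wells and 0% = media-only wells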
Outline: as §1

[5] = Quantitative High-Throughput drug screen in 47 multiple myeloma cell lines against the NCATS MIPE library collection: U266_ATCC cell viability assay (AID 1919864); further: nearly all actives have a fitted effect of over 35% in size
Outline: as §1

[6] = Quantitative High-Throughput drug screen in 47 multiple myeloma cell lines against the NCATS MIPE library collection: XG6_PLB cell viability assay (AID 1919865); details: XG6 myeloma viability, CellTiter-Glo ATP luminescence, 48 h; viability (% of control): at 45.8 µM (top of the series); further: nearly all actives have a fitted effect of over 40% in size;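 on viability (% of control): 100% = DMSO-only wells and 0% = media-only wells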
Outline: as §1

[7] = Quantitative High-Throughput drug screen in 47 multiple myeloma cell lines against the NCATS MIPE library collection: XG1_PLB cell viability assay (AID 1919866); further: nearly all actives have a fitted effect of over 35% in size
Outline: as §1

[8] = Quantitative High-Throughput drug screen in 47 multiple myeloma cell lines against the NCATS MIPE library collection: VP6_DJ cell viability assay (AID 1919867); details: ATP luminescence, 48 h; viability (% of DMSO): at 45.8 µM (top of the series); further: nearly all actives have a fitted effect of over 40% in size;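 on viability (% of DMSO): 100% = DMSO-only wells and 0% = wells with media alone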
Outline: as §1

[9] = Quantitative High-Throughput drug screen in 47 multiple myeloma cell lines against the NCATS MIPE library collection: SKMM1_PLB cell viability assay (AID 1919863); details: SKMM1 myeloma viability, CellTiter-Glo ATP, 48 h; viability: active compounds read low; further: nearly all actives have a fitted effect of over 35% in size
Outline: as §1

[10] = Quantitative High-Throughput drug screen in 47 multiple myeloma cell lines against the NCATS MIPE library collection: KMS34_JCRB cell viability assay (AID 1918985); details: KMS34 myeloma viability, CellTiter-Glo ATP luminescence, 48 h; viability, percent of control: at 45.8 µM (top of the series); further: nearly all actives have a fitted effect of over 40% in size
Outline: as §1
Potency means the concentration at half of the fitted maximal effect.

Cc1cccc(-c2[nH]ncc2-c2ccc3ncccc3n2)n1
inactive: Potency [1] | Potency [5] | Potency [6] | Potency [8]
inconclusive: Potency [2] 0.0662 µM [cytotoxic, full curve, poor fit] | Potency [3] 0.0296 µM [rising, full curve, poor fit] | Potency [4] 18.7 µM [cytotoxic, partial curve, poor fit] | Potency [7] 5.9 µM [cytotoxic, partial curve, poor fit]

CC(C)(C)c1[nH]cnc1C=c1[nH]c(=O)c(=Cc2ccccc2)[nH]c1=O
inconclusive: Potency [1] 0.054 µM [cytotoxic, partial curve, poor fit] | Potency [2] 0.0121 µM [cytotoxic, full curve] | Potency [3] 0.303 µM [cytotoxic, full curve] | Potency [4] 0.0152 µM [cytotoxic, full curve] | Potency [9] 0.0959 µM [cytotoxic, full curve] | Potency [5] 17.1 µM [cytotoxic, partial curve, poor fit] | Potency [6] 76.2 µM [cytotoxic, single point] | Potency [8] 27 µM [cytotoxic, partial curve]
inactive: Potency [7]

Cn1c(=O)c(F)c(Nc2ccc(I)cc2F)c2c(=O)n(C[C@@H](O)CO)cnc21
active: Potency [5] 9.35 µM
inconclusive: Potency [1] 20.9 µM [cytotoxic, partial curve] | Potency [2] 0.0059 µM [cytotoxic, full curve, poor fit] | Potency [3] 0.0469 µM [rising, full curve, poor fit] | Potency [4] 16.6 µM [cytotoxic, partial curve] | Potency [6] 0.0042 µM [cytotoxic, full curve, poor fit] | Potency [8] 0.0118 µM [cytotoxic, full curve, poor fit]

CC(C)CC(=O)N[C@H](C(=O)N[C@H](C(=O)N[C@@H](CC(C)C)[C@@H](O)CC(=O)N[C@@H](C)C(=O)N[C@@H](CC(C)C)[C@@H](O)CC(=O)O)C(C)C)C(C)C (Isovaleryl-VV[Sta]A[Sta]-OH)
active: Potency [7] 16.6 µM
inconclusive: Potency [3] 37.2 µM [cytotoxic, single point] | Potency [9] 0.526 µM [rising, full curve, poor fit] | Potency [8] 6.62 µM [cytotoxic, full curve, poor fit]
inactive: Potency [1] | Potency [2] | Potency [4] | Potency [6]

Cc1nc2c([nH]1)CCN(C(=O)c1ccc(NC(=O)c3ccccc3-c3ccccc3)cc1)c1ccccc1-2
inconclusive: Potency [1] 0.0033 µM [rising, full curve, poor fit] | Potency [2] 16.6 µM [cytotoxic, partial curve, poor fit] | Potency [3] 20.9 µM [cytotoxic, partial curve, poor fit] | Potency [4] 33.2 µM [cytotoxic, single point] | Potency [9] 0.0012 µM [rising, full curve, poor fit] | Potency [5] 0.0021 µM [rising, full curve, poor fit] | Potency [6] 26.4 µM [cytotoxic, single point] | Potency [8] 37.2 µM [cytotoxic, single point]
inactive: Potency [7]

CC(C)(OCc1nn(Cc2ccccc2)c2ccccc12)C(=O)O
inconclusive: viability (% of control) [1] 149% | Potency [2] 37.2 µM [cytotoxic, partial curve, poor fit] | Potency [3] 20.9 µM [cytotoxic, partial curve, poor fit] | Potency [9] 0.0833 µM [cytotoxic, full curve, poor fit] | Potency [5] 16.6 µM [cytotoxic, partial curve] | Potency [6] 37.2 µM [cytotoxic, single point] | Potency [7] 37.2 µM [cytotoxic, single point] | Potency [8] 0.0047 µM [rising, full curve, poor fit]
inactive: Potency [4]

Cc1cc(C(=O)NOCCO)c(Nc2ccc(I)cc2F)n(C)c1=O
inconclusive: Potency [2] 0.469 µM [cytotoxic, partial curve, poor fit] | Potency [3] 0.0012 µM [rising, full curve, poor fit] | Potency [4] 1.32 µM [cytotoxic, full curve, poor fit] | Potency [5] 10.5 µM [cytotoxic, full curve, poor fit] | Potency [6] 4.69 µM [cytotoxic, full curve] | Potency [7] 33.2 µM [cytotoxic, partial curve, poor fit] | Potency [8] 23.5 µM [cytotoxic, partial curve, poor fit]
inactive: Potency [1] | viability [9] 90.9%

NS(=O)(=O)c1cc2c(cc1Cl)NCNS2(=O)=O
inactive: Potency [1] | viability [9] 114%
inconclusive: Potency [2] 33.2 µM [cytotoxic, single point] | Potency [3] 29.6 µM [cytotoxic, single point] | Potency [4] 29.6 µM [cytotoxic, single point] | Potency [5] 0.0209 µM [rising, full curve, poor fit] | Potency [6] 6.62 µM [cytotoxic, full curve] | Potency [8] 37.2 µM [cytotoxic, single point]

C[C@H](NC(=O)Cc1cc(F)cc(F)c1)C(=O)N[C@H](C(=O)OC(C)(C)C)c1ccccc1
inconclusive: Potency [2] 20.9 µM [cytotoxic, single point] | viability, % of control [3] 123% [cytotoxic] | viability (% of DMSO) [8] 154%
inactive: Potency [1] | Potency [4] | Potency [5]

Quoted at random: 2 compounds from above
CC(C)(OCc1nn(Cc2ccccc2)c2ccccc12)C(=O)O
inconclusive: viability (% of control) [1] 149% | Potency [2] 37.2 µM [cytotoxic, partial curve, poor fit] | Potency [3] 20.9 µM [cytotoxic, partial curve, poor fit] | Potency [9] 0.0833 µM [cytotoxic, full curve, poor fit] | Potency [5] 16.6 µM [cytotoxic, partial curve] | Potency [6] 37.2 µM [cytotoxic, single point] | Potency [7] 37.2 µM [cytotoxic, single point] | Potency [8] 0.0047 µM [rising, full curve, poor fit]
inactive: Potency [4]

C[C@H](NC(=O)Cc1cc(F)cc(F)c1)C(=O)N[C@H](C(=O)OC(C)(C)C)c1ccccc1
inconclusive: Potency [2] 20.9 µM [cytotoxic, single point] | viability, % of control [3] 123% [cytotoxic] | viability (% of DMSO) [8] 154%
inactive: Potency [1] | Potency [4] | Potency [5]

Later entries.

COc1cc([C@@H]2c3cc4c(cc3[C@H](O)[C@H]3COC(=O)[C@@H]23)OCO4)cc(OC)c1OC
active: Potency [1] 0.0662 µM | Potency [10] 0.0833 µM | Potency [6] 0.0833 µM | Potency [8] 0.296 µM
inconclusive: Potency [5] 0.296 µM [cytotoxic, full curve]

N[C@@]1(C(=O)O)CS(=O)(=O)[C@H]2[C@H](C(=O)O)[C@H]21
inconclusive: Potency [1] 13.2 µM [cytotoxic, partial curve] | Potency [2] 0.0833 µM [rising, full curve, poor fit] | Potency [3] 18.7 µM [cytotoxic, partial curve, poor fit] | Potency [4] 23.5 µM [cytotoxic, partial curve, poor fit] | Potency [9] 0.001 µM | Potency [6] 16.6 µM [cytotoxic, partial curve] | Potency [7] 14.8 µM [cytotoxic, partial curve] | Potency [8] 3.32 µM [cytotoxic, full curve]

N#Cc1ccc(Oc2ccc3c(c2)COB3O)cc1
inconclusive: Potency [1] 18.7 µM [cytotoxic, partial curve, poor fit] | Potency [2] 37.2 µM [cytotoxic, partial curve, poor fit] | Potency [3] 23.5 µM [cytotoxic, partial curve, poor fit] | Potency [4] 33.2 µM [cytotoxic, single point] | Potency [7] 26.4 µM [cytotoxic, single point] | Potency [8] 29.6 µM [cytotoxic, single point]
active: Potency [6] 16.6 µM
inactive: viability [9] 113% | Potency [5]

CCN(CC)CCCC(C)Nc1nc(C)cc(Nc2ccc3nc(C)cc(N)c3c2)n1 (stereo not drawn)
inconclusive: Potency [1] 33.2 µM [cytotoxic, single point] | viability, % of control [3] 79.2% [cytotoxic] | Potency [4] 14.8 µM [cytotoxic, partial curve] | Potency [5] 33.2 µM [cytotoxic, single point] | Potency [6] 20.9 µM [cytotoxic, partial curve] | Potency [7] 3.72 µM [cytotoxic, full curve]
active: Potency [2] 8.33 µM
inactive: viability [9] 123%
